Reference: PubChem BioAssay AID743121 (NCATS, 2013)
Here is a random part of about 26,000 deposited reagents. 167 of all reagents (0.63%) were called active. 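Calls are per gene from RSA p-values that are not deposited; an individual active-marked siRNA can sensitise only weakly.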 A number with no mark means an inactive call. Reagents against one gene are numbered here. Not all columns of the deposit are shown.

Purpose: 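Partners whose loss is lethal together with topoisomerase I blockade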 (primary screen)
Cell system: MDA-MB-231 cells, a human breast cancer line
Reagents: single siRNA against human genes, 20 nM siRNA (0.8 pmol per well)
Timing: 120 h (drug added 48 h after transfection, read 72 h later)
Challenge: camptothecin 20 nM (about EC30) for 72 h; vehicle 0.1% DMSO in parallel plates
Read-out: 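Cell viability by ATP luminescence (CellTiter-Glo) as % of non-targeting siRNA wells, and the log2 ratio of viability without drug over viability with camptothecin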
Scale: log2 vehicle/camptothecin viability: higher = stronger sensitisation to camptothecin; viability with camptothecin: higher = more viable cells
Rule for the call: 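Each gene scored by redundant siRNA activity (RSA) over its individual siRNA ratios; a gene is called active at p < 0.001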

gene	siRNA no.	log2 vehicle/camptothecin viability	viability with camptothecin (% of control)
CCL1 (C-C motif chemokine ligand 1)	1	-0.486	51.1
CCL1 (C-C motif chemokine ligand 1)	2	-0.173	78.1
CCL1 (C-C motif chemokine ligand 1)	3	-0.728	98
CCL1 (C-C motif chemokine ligand 1)	4	0.614	37.6
GRAP2 (GRB2 related adaptor protein 2)	1	-0.388	66.3
GRAP2 (GRB2 related adaptor protein 2)	2	-0.22	105
GRAP2 (GRB2 related adaptor protein 2)	3	-0.545	52.1
GRAP2 (GRB2 related adaptor protein 2)	4	-0.351	86.9
TNNI3 (troponin I3, cardiac type)	1	-0.199	94.2
TNNI3 (troponin I3, cardiac type)	2	-0.287	114
TNNI3 (troponin I3, cardiac type)	3	-0.121	95.9
TNNI3 (troponin I3, cardiac type)	4	-0.117	75.4
CR1 (complement C3b/C4b receptor 1 (Knops blood group))	1	-0.245	102
CR1 (complement C3b/C4b receptor 1 (Knops blood group))	2	-0.219	89.6
CR1 (complement C3b/C4b receptor 1 (Knops blood group))	3	-1.14	54.4
CR1 (complement C3b/C4b receptor 1 (Knops blood group))	4	-0.48	88.9
PPP2R2D (protein phosphatase 2 regulatory subunit Bdelta)	1	0.129	82.4
PPP2R2D (protein phosphatase 2 regulatory subunit Bdelta)	2	-0.284	98.9
PPP2R2D (protein phosphatase 2 regulatory subunit Bdelta)	3	0.519	52.5
PPP2R2D (protein phosphatase 2 regulatory subunit Bdelta)	4	-0.102	104
SIGMAR1 (sigma receptor chaperone 1)	1	-0.132	77.8
SIGMAR1 (sigma receptor chaperone 1)	2	-0.473	65.6
SIGMAR1 (sigma receptor chaperone 1)	3	0.102	34.5
SIGMAR1 (sigma receptor chaperone 1)	4	-0.0346	72.2
PPTC7 (protein phosphatase targeting COQ7)	1	-0.165	88.5
PPTC7 (protein phosphatase targeting COQ7)	2	-0.0721	22.5
PPTC7 (protein phosphatase targeting COQ7)	3	-0.529	70.5
PPTC7 (protein phosphatase targeting COQ7)	4	-0.677	114
BTD (biotinidase)	1	-0.234	83.7
BTD (biotinidase)	2	-0.00921	84.9
BTD (biotinidase)	3	0.153	63
BTD (biotinidase)	4	0.138	104
FBXL2 (F-box and leucine rich repeat protein 2)	1	0.307	55.3
FBXL2 (F-box and leucine rich repeat protein 2)	2	0.135	82.5
FBXL2 (F-box and leucine rich repeat protein 2)	3	-0.295	81.7
FBXL2 (F-box and leucine rich repeat protein 2)	4	-0.428	75.1
CRHR2 (corticotropin releasing hormone receptor 2)	1	0.0875	61.1
CRHR2 (corticotropin releasing hormone receptor 2)	2	-0.0501	59
CRHR2 (corticotropin releasing hormone receptor 2)	3	-0.52	96.1
CRHR2 (corticotropin releasing hormone receptor 2)	4	0.224	64.8
BACE2 (beta-secretase 2)	1	-0.219	71.7
BACE2 (beta-secretase 2)	2	0.572	76
BACE2 (beta-secretase 2)	3	-0.393	98.6
BACE2 (beta-secretase 2)	4	-0.217	84.4
TNFSF10 (TNF superfamily member 10)	1	-0.998	92.5
TNFSF10 (TNF superfamily member 10)	2	-0.0939	109
TNFSF10 (TNF superfamily member 10)	3	-0.0141	91.5
TNFSF10 (TNF superfamily member 10)	4	-0.252	72.8
PVR (PVR cell adhesion molecule)	1	-0.383	92.4
PVR (PVR cell adhesion molecule)	2	0.79	34.4
PVR (PVR cell adhesion molecule)	3	-0.0392	92.7
PVR (PVR cell adhesion molecule)	4	-0.322	44.9
COL10A1 (collagen type X alpha 1 chain)	1	-0.356	67.5
COL10A1 (collagen type X alpha 1 chain)	2	-0.508	90.2
COL10A1 (collagen type X alpha 1 chain)	3	-0.285	123

14 of these entries, reformatted.
{"gene":"TNNI3 (troponin I3, cardiac type)","siRNA no.":1,"log2 vehicle/camptothecin viability":-0.199,"viability with camptothecin (% of control)":94.2}
{"gene":"TNNI3 (troponin I3, cardiac type)","siRNA no.":2,"log2 vehicle/camptothecin viability":-0.287,"viability with camptothecin (% of control)":114}
{"gene":"TNNI3 (troponin I3, cardiac type)","siRNA no.":3,"log2 vehicle/camptothecin viability":-0.121,"viability with camptothecin (% of control)":95.9}
{"gene":"TNNI3 (troponin I3, cardiac type)","siRNA no.":4,"log2 vehicle/camptothecin viability":-0.117,"viability with camptothecin (% of control)":75.4}
{"gene":"CR1 (complement C3b/C4b receptor 1 (Knops blood group))","siRNA no.":1,"log2 vehicle/camptothecin viability":-0.245,"viability with camptothecin (% of control)":102}
{"gene":"CR1 (complement C3b/C4b receptor 1 (Knops blood group))","siRNA no.":2,"log2 vehicle/camptothecin viability":-0.219,"viability with camptothecin (% of control)":89.6}
{"gene":"CR1 (complement C3b/C4b receptor 1 (Knops blood group))","siRNA no.":3,"log2 vehicle/camptothecin viability":-1.14,"viability with camptothecin (% of control)":54.4}
{"gene":"CR1 (complement C3b/C4b receptor 1 (Knops blood group))","siRNA no.":4,"log2 vehicle/camptothecin viability":-0.48,"viability with camptothecin (% of control)":88.9}
{"gene":"PPP2R2D (protein phosphatase 2 regulatory subunit Bdelta)","siRNA no.":1,"log2 vehicle/camptothecin viability":0.129,"viability with camptothecin (% of control)":82.4}
{"gene":"PPP2R2D (protein phosphatase 2 regulatory subunit Bdelta)","siRNA no.":2,"log2 vehicle/camptothecin viability":-0.284,"viability with camptothecin (% of control)":98.9}
{"gene":"PPP2R2D (protein phosphatase 2 regulatory subunit Bdelta)","siRNA no.":3,"log2 vehicle/camptothecin viability":0.519,"viability with camptothecin (% of control)":52.5}
{"gene":"PPP2R2D (protein phosphatase 2 regulatory subunit Bdelta)","siRNA no.":4,"log2 vehicle/camptothecin viability":-0.102,"viability with camptothecin (% of control)":104}
{"gene":"SIGMAR1 (sigma receptor chaperone 1)","siRNA no.":1,"log2 vehicle/camptothecin viability":-0.132,"viability with camptothecin (% of control)":77.8}
{"gene":"SIGMAR1 (sigma receptor chaperone 1)","siRNA no.":2,"log2 vehicle/camptothecin viability":-0.473,"viability with camptothecin (% of control)":65.6}

Continued:
gene	siRNA no.	log2 vehicle/camptothecin viability	viability with camptothecin (% of control)
GLRB (glycine receptor beta)	1	-0.139	126
GLRB (glycine receptor beta)	2	-0.0918	85.1
GLRB (glycine receptor beta)	3	0.558	42.2
CCT5 (chaperonin containing TCP1 subunit 5)	1	-0.534	103
CCT5 (chaperonin containing TCP1 subunit 5)	2	-0.345	64.8
CCT5 (chaperonin containing TCP1 subunit 5)	3	-0.0414	69.9
CCT5 (chaperonin containing TCP1 subunit 5)	4	-0.269	61.6
CHD4 (chromodomain helicase DNA binding protein 4)	1	-0.129	34
CHD4 (chromodomain helicase DNA binding protein 4)	2	-0.408	89.6
CHD4 (chromodomain helicase DNA binding protein 4)	3	-0.508	88.7
CHD4 (chromodomain helicase DNA binding protein 4)	4	-0.173	67.9
HMGN2 (high mobility group nucleosomal binding domain 2)	1	0.0764	107
HMGN2 (high mobility group nucleosomal binding domain 2)	2	-0.153	106
HMGN2 (high mobility group nucleosomal binding domain 2)	3	-0.0179	74.4
HMGN2 (high mobility group nucleosomal binding domain 2)	4	-0.359	80.3
WNT10B (Wnt family member 10B)	1	-0.0203	62.4
WNT10B (Wnt family member 10B)	2	-0.171	63.4
WNT10B (Wnt family member 10B)	3	-0.462	41
WNT10B (Wnt family member 10B)	4	0.000901	35
IL4R (interleukin 4 receptor)	1	-0.0855	63.4
IL4R (interleukin 4 receptor)	2	-0.337	84.3
IL4R (interleukin 4 receptor)	3	-0.495	82.5
FAU (FAU ubiquitin like and ribosomal protein S30 fusion)	1	-0.266	32.3
FAU (FAU ubiquitin like and ribosomal protein S30 fusion)	2	-0.601	23.3
FAU (FAU ubiquitin like and ribosomal protein S30 fusion)	3	-0.442	43.1
FAU (FAU ubiquitin like and ribosomal protein S30 fusion)	4	-0.279	83.9
STX17 (syntaxin 17)	1	0.175	80.5
STX17 (syntaxin 17)	2	-0.287	59.8
STX17 (syntaxin 17)	3	-0.442	62.6
STX17 (syntaxin 17)	4	-0.124	68.8
PTGS2 (prostaglandin-endoperoxide synthase 2)	1	-0.26	113
PTGS2 (prostaglandin-endoperoxide synthase 2)	2	-0.496	81.1
PTGS2 (prostaglandin-endoperoxide synthase 2)	3	0.253	34.6
